What all share (type): biochemical
For one assay, the target named is human Lck enzyme (Homo sapiens, UniProt P06239). Nature of the assay: Lck enzyme inhibitory activity (time-resolved fluorometry, biotinylated peptide phosphorylation). The conditions noted are these: read-out: LCK_IC50. How it is done: (§1) 3. Lck Enzyme Inhibitory Activity Lck inhibitory activity was determined based on activity of inhibiting phosphorylation reaction of a biotinylated peptide (EGPWLEEEEEAYGWMDF) using a human Lck enzyme (manufactured by Carna Biosciences, Inc., cat 08-170). The phosphorylated biotinylated peptide was detected by time-resolved fluorometry using an anti-phosphorylated tyrosine antibody conjugated to europium cryptate, and streptavidin conjugated to XL665, an allophycocyanin derivative. The 50% inhibitory concentration (IC50) was calculated from the inhibition rate relative to the control group without containing the test substance.

By UniProt entry, the sequences of proteins in these tests, tags left out.
UniProt P06239, whole entry: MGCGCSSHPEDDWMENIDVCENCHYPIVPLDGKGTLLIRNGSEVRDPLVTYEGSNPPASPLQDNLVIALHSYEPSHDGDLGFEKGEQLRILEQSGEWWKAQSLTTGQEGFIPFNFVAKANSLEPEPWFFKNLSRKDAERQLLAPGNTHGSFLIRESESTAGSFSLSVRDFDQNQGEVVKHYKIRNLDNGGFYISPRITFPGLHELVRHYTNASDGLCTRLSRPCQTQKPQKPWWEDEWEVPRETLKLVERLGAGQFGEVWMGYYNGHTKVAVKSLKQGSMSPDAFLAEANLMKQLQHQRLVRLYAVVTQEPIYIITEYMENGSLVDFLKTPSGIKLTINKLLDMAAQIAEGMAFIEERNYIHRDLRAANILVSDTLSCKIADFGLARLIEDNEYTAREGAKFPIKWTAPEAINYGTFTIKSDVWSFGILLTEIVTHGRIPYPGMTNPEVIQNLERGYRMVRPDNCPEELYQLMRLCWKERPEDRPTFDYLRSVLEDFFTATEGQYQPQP
UniProt P12931, whole entry: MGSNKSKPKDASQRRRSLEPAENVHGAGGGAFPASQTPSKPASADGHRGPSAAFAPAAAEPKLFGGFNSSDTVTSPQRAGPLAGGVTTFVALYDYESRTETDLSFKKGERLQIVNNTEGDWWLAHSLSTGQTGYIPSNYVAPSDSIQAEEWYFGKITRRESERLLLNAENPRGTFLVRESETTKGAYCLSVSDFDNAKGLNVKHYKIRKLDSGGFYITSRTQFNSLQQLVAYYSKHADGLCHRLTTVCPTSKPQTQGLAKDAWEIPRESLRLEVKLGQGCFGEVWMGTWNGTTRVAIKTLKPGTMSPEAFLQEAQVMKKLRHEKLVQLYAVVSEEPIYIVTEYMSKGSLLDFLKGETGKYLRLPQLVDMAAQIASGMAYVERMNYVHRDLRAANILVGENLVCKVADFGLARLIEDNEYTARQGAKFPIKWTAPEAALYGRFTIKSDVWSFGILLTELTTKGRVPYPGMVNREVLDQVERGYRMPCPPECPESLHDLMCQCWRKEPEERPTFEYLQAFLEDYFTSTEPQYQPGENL
UniProt P07947, whole entry: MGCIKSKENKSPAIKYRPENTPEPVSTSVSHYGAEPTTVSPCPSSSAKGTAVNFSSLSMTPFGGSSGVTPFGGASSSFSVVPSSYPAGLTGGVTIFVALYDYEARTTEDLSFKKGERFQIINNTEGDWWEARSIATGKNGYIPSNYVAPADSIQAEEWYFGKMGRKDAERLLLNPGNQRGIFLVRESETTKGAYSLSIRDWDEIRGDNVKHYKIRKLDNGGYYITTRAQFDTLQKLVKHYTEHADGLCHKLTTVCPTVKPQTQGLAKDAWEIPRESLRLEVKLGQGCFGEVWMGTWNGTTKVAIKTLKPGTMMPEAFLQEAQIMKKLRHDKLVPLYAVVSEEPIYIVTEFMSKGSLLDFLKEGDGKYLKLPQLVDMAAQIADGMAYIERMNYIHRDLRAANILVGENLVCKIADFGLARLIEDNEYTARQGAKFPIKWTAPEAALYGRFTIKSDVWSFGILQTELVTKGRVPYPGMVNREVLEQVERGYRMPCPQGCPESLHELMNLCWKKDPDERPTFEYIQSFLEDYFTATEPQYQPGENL

Another assay deals with human Src enzyme (Homo sapiens, UniProt P12931). Kind of assay: Src enzyme inhibitory activity (time-resolved fluorometry, biotinylated peptide phosphorylation). The conditions noted are these: read-out: SRC_IC50. How it is done: as §1, with “2. Src” for “3. Lck”, “Src” for “Lck”, “08-173).” for “08-170).”
A further assay has as its target human Yes1 enzyme (Homo sapiens, UniProt P07947). Kind of assay: Yes1 enzyme inhibitory activity (time-resolved fluorometry, biotinylated peptide phosphorylation). The conditions noted are these: read-out: YES_IC50. How it is done:
as §1, with “1. Yes1” for “3. Lck”, “Yes1” for “Lck”, “prepared using a baculovirus expression system.” for “(manufactured by Carna Biosciences, Inc., cat 08-170).”

Each structure is given as a SMILES string. The match of structure and compound is tentative.

As for `Cc1cc(Oc2ccccc2F)ccc1-n1ncc(C(=O)c2cc3cc(OCC(F)F)c(N4C(=O)[C@@H]5C[C@H](NS(C)(=O)=O)CN5C4=O)cc3[nH]2)c1N`, the IC50 at human Lck enzyme turned out to be 3.1 nM; at human Src enzyme it was 10 nM; at human Yes1 enzyme it was 0.89 nM.
In the same order, the values of `Cc1cc(Oc2ccccc2F)ccc1-n1ncc(C(=O)c2cc3cc(OCC(F)F)c(N4C(=O)N[C@@H](Cc5cnc[nH]5)C4=O)cc3[nH]2)c1N` are 3.2 nM, 9.6 nM and 1.1 nM.
